# Results published in PubChem BioAssay AID493014 (National Center for Advancing Translational Sciences (NCATS), 2011).
# The list shows a part of the results. Shown are side measurements of this screen, not its main read-out; they come without a call. The list favours compounds with an active or inconclusive main result. Potencies come from curve fits of mixed quality, noted in brackets.
# Assay: qHTS Assay to Find Inhibitors of Chronic Active B-Cell Receptor Signaling
# Conditions: ABC-DLBCL IkBa-CBG/CBR reporter, luminescence ratio (green luciferase fused to IkBa over red control in TMD8 lymphoma cells), 4 h
# Summary of the method: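 Concentration-response series (up to 46 uM) were applied to TMD8 dual-reporter cells for 4 h at 37C with doxycycline. Green/red ratio, after filter-overlap correction, defined %Activity; red signal alone was normalised to basal cells and zero luminescence.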
# [1] = measured here: CBR red luminescence, cell number
# [2] = measured here: IkBa-CBG green luminescence
SMILES,AC50 [1],AC50 [2]
CC(c1ccco1)N(C(=O)Nc1ccc(Cl)cc1)c1ccccn1 (configuration not stated),"3.16 µM [rising, partial curve, poor fit]",
Cc1ccc(C)c(S(=O)(=O)N2CCC(c3nc4c(nnn4Cc4ccc(F)cc4)c(=O)[nH]3)CC2)c1,"35.5 µM [falling, single point]",
C[n+]1ccccc1/C=C/c1cc(Br)ccc1O,"5.62 µM [rising, full curve, poor fit]",
CN(C)S(=O)(=O)c1cccc(NC(=O)c2ccc(Sc3nncn3C)c([N+](=O)[O-])c2)c1,"10 µM [rising, partial curve]",
Cc1sc2nc(C3CC3)nc(SCC(=O)N3CCc4ccccc4C3)c2c1C,"23.1 µM [falling, single point]",
CCOC(=O)N1CCN(C(=O)c2ccc(Cn3c(=S)[nH]c4cc5c(cc4c3=O)OCO5)cc2)CC1,"0.146 µM [falling, full curve]",
O=C(Nc1ccc(F)c([N+](=O)[O-])c1)c1ccc2c(c1)OCCO2,"5.01 µM [rising, single point]",
CC(C)(C)OC(=O)CN1C(=O)NC(Cc2c[nH]c3ccccc23)C1=O (configuration not stated),"11.2 µM [rising, single point]",
Cc1ccc(OCC(=O)Nc2cccc(-c3nnc(-c4ccccc4)o3)c2)cc1,"2.31 µM [rising, full curve]",
Cc1cc(N2CCN(C)CC2)nc2ccc(NC(=S)N3CCN(c4ccc(Cl)cc4)CC3)cc12,"12.6 µM [falling, single point]",
Cc1cccn2cc(COc3cccc([N+](=O)[O-])c3)nc12,"5.01 µM [rising, full curve, poor fit]",
C=CCN(c1ccc(C(=O)Nc2ccc3c(c2)n(C)c(=O)n3C)cc1)S(C)(=O)=O,"11.2 µM [rising, partial curve]","35.5 µM [falling, single point]"
CCOC(=O)C(=CNc1ccc(NC2=NCC(C)(C)S2)cc1)C(=O)OCC,"5.62 µM [falling, full curve, poor fit]",
COc1cccc(/C=N/Nc2nc(Nc3ccccc3)nc(-n3nc(C)cc3C)n2)c1O,"8.2 µM [falling, partial curve, poor fit]","2.06 µM [falling, partial curve, poor fit]"
Cc1ccc(/C(N)=N/OC(=O)Cc2ccccc2)cc1,"1.3 µM [rising, partial curve]",
NC1=C(c2ccc(F)cc2)C(=O)CS1,"2 µM [falling, partial curve, poor fit]",
COC(=O)C(NC(C)=O)(Nc1nc(C)cs1)C(F)(F)F (configuration not stated),"5.17 µM [rising, single point]",
CC1CCc2sc(C(=O)NN=C3CCC(c4ccccc4)CC3)cc2C1 (configuration not stated),"20.6 µM [falling, single point]",
CC1=Nn2c(nnc2-c2cc(C)[nH]n2)SC1,"3.16 µM [rising, full curve, poor fit]",
On1ccccc1=S,"2.91 µM [rising, partial curve]","0.411 µM [falling, full curve]"
O=c1oc2ccccc2c(Cl)c1CN1CCCCC1,"11.2 µM [falling, partial curve]",

# Entries shown so far containing a nitro group on carbon (3):
SMILES,AC50 [1],AC50 [2]
CN(C)S(=O)(=O)c1cccc(NC(=O)c2ccc(Sc3nncn3C)c([N+](=O)[O-])c2)c1,"10 µM [rising, partial curve]",
O=C(Nc1ccc(F)c([N+](=O)[O-])c1)c1ccc2c(c1)OCCO2,"5.01 µM [rising, single point]",
Cc1cccn2cc(COc3cccc([N+](=O)[O-])c3)nc12,"5.01 µM [rising, full curve, poor fit]",

# Later entries.

SMILES,AC50 [1],AC50 [2]
Nc1nncn1C(=O)CCCN1C(=O)c2ccccc2C1=O,"3.66 µM [rising, full curve, poor fit]",
COC(CNC(=O)CSCc1nc(-c2ccc(SC)cc2)oc1C)OC,"20 µM [rising, single point]",
Cc1cc(C)c2c(=O)c(/C=C3\NC(=S)NC3=O)coc2c1,"0.891 µM [rising, full curve]",
Cn1cc(CN(Cc2ccccc2)C[C@@H]2CCC(=O)N2)c(-c2ccccc2F)n1,"35.5 µM [falling, single point]",
O=Cc1cn(Cc2ccccc2)nc1-c1cccnc1,"20 µM [falling, single point]",
O=C(Nc1nnc(-c2ccccc2F)s1)C1CCN(S(=O)(=O)c2ccc(Cl)cc2)CC1,"14.6 µM [rising, partial curve]",
Cn1c(C(=O)N2CCCC(C(=O)NCCCc3ccccc3)C2)cc2sccc21 (configuration not stated),"2.06 µM [falling, single point]",
COC(=O)c1ccsc1NC(=O)CCc1ccccc1,"14.1 µM [falling, single point]",
COc1ccc(S(=O)(=O)N(C)c2ccc(C(=O)N3CCOCC3)cc2)cc1,"5.8 µM [falling, single point]",
COc1cc(/C=N/NC(=O)c2ccc3c(c2)OCCO3)cc(Cl)c1O,"12.6 µM [falling, partial curve, poor fit]",
Cc1cccc(NC(=S)NC(=O)/C=C/c2ccco2)c1,,"22.4 µM [falling, single point]"
CC(=O)Nc1ccc(-c2csc(N/N=C\c3ccncc3)n2)cc1,"1.78 µM [rising, partial curve, poor fit]",
CCc1cccc2c(C(=O)CN3C(=O)NC4(CCCCCC4)C3=O)c[nH]c12,"0.146 µM [falling, partial curve, poor fit]",
CC1CCN(Cc2cc(=O)oc3cc(O)c(Cl)cc23)CC1,"5.62 µM [rising, single point]",
O=C(Nc1ccc(Cl)c(Cl)c1)N1CCC(c2ccccc2)C1 (configuration not stated),"6.31 µM [falling, partial curve, poor fit]",
CCOCCCn1c(C)nc2c[n+](CC(=O)c3ccc4ccccc4c3)cc(Br)c21,"35.5 µM [rising, single point]",
Nc1c(-c2ccc(Cl)cc2)cnn1-c1cccc(C(F)(F)F)c1,"0.708 µM [falling, partial curve, poor fit]",
OC1CCCN(Cc2cn(Cc3ccccc3)nc2-c2cc3ccccc3o2)C1 (configuration not stated),"25.1 µM [falling, single point]",
Cc1ccc(S(=O)(=O)c2c(N)n(/N=C/c3ccco3)c3nc4ccccc4nc23)cc1C,"7.08 µM [falling, full curve, poor fit]",
N/C(=N\c1nc2c(c(=O)[nH]1)CCCC2)Nc1ccccc1Sc1ccccc1,"0.517 µM [rising, full curve, poor fit]",
CC(C)c1nc(N2CCOCC2)c(C#N)c2c1CCCC2,"5.17 µM [rising, full curve, poor fit]",

SMILES,AC50 [1],AC50 [2]
COc1cccc(OCCNC(=O)c2cccc(OC)c2)c1,"29.1 µM [falling, single point]",
O=C(NCc1ccccc1)c1cccc(COc2cc(Cl)ccc2Cl)c1,"2.91 µM [rising, partial curve, poor fit]",
COc1ccc(NC(=O)[C@@H]2CCCN2S(=O)(=O)c2ccccc2F)cc1S(=O)(=O)N1CCCCC1,"2.91 µM [rising, full curve, poor fit]",
C=CCC[C@H](Cc1ccc(F)cc1)C(=O)O[C@H](CNC(=O)[C@@H](CC=C)CC(=O)N(CCO)Cc1ccccc1)c1ccccc1,"16.4 µM [falling, partial curve]",
CC(C)Cc1csc(NC(=O)C(C)C)c1C(=O)O,"12.6 µM [falling, single point]",
COc1cccc(C2=Nc3cccc4cccc(c34)N2)c1,"18.4 µM [falling, single point]",
COc1ccccc1N1CCN(C(=O)CSc2nc3ncnc(N)c3[nH]2)CC1,"2.31 µM [rising, partial curve]",
CCn1cc(C(=O)OC)c(=O)c2cc(S(=O)(=O)N(C)C3CCCCC3)ccc21,,"35.5 µM [rising, partial curve, poor fit]"
NNC(=O)C1CC1(c1ccccc1)c1ccccc1 (configuration not stated),"14.1 µM [falling, single point]",
C#CCOCCOCCOCCNc1nc(N2CCN(C(=O)[C@H]([C@@H](C)CC)n3cc(CCCN=C(N)N)nn3)CC2)nc(N2CCN(C(=O)[C@H](CCCCN)n3cc(CCC(=O)O)nn3)CC2)n1,"16.4 µM [rising, partial curve, poor fit]",
COc1ccccc1CCNc1ncnc2c1nnn2C,"17.8 µM [falling, partial curve]",
Oc1ccccc1/C=N/n1c(COc2ccccc2)n[nH]c1=S,"35.5 µM [rising, single point]",
CN1CCN(CC(=O)Nc2cc(N(C)C)nc3ccccc23)CC1,"11.2 µM [falling, single point]",
CCCCc1nnc(NC(=O)Cc2ccc(S(=O)(=O)N3CCOCC3)s2)s1,"18.4 µM [rising, single point]",
COC(=O)c1ccccc1NC(=O)Nc1cc(C(C)(C)C)on1,"20 µM [rising, partial curve, poor fit]",
O=C(Nc1ccc(N2CCOCC2)cc1)c1cc2c(s1)CCCC2,"20 µM [rising, partial curve, poor fit]",
CCn1ccnc1CN1CCc2c([nH]c3ccccc23)C1C(C)(C)C (configuration not stated),"15.8 µM [falling, single point]",
COc1ccc(OC)c2c(C)cc(C)nc12,"1.84 µM [rising, partial curve, poor fit]",
CCN1CCN(c2cc(C)c3cc(NC(=S)N4CC(C)CC(C)C4)ccc3n2)CC1 (configuration not stated),"7.94 µM [falling, partial curve, poor fit]",
O=C(Nc1ccccc1)c1cccc(=O)o1,"35.5 µM [falling, single point]",
Cc1ccc(-n2sc3ccccc3c2=O)cc1,"13 µM [falling, partial curve]","6.51 µM [falling, single point]"
